According to PubChem BioAssay (NCATS):
This is one part of the list. These are further read-outs of the screen, such as a control signal, another cell line or another target. No call is given for them. Most of these compounds were active or inconclusive in the main read-out, so they are no random draw.

assay: qHTS assay for small molecule agonists of retinoid X receptor alpha signaling (AID 588544); conditions: HEK293T RXRa-UAS-bla, beta-lactamase reporter, 18 h; 530 nm emission

SMILES | max response
CCCCCCCCCCCC[N+](C)(C)C | 52.2%
O=S(=O)(O)NC1CCCCC1 | -17.6%
c1ccc(OCCOc2ccccc2)cc1 | 3.64%
COc1ccc(C(=O)Nc2ccccc2)cc1[N+](=O)[O-] | 32.2%
COC(=O)C(C)Oc1ccc(Oc2ncc(C(F)(F)F)cc2Cl)cc1 (stereo not given) | 44.9%
COC(=O)c1cccc(C)c1S(=O)(=O)NC(=O)Nc1nc(OCC(F)(F)F)nc(N(C)C)n1 | -13.4%
Nc1ccc(Nc2ccccc2)cc1 | 2.65%
COC(=O)CCSCCC(=O)OC | 5.25%
C=CCOC(=O)CCCCCCCC | -0.522%
Nc1ccc(Cl)cc1Cl | -7.32%
Cc1ccc(Cl)cc1Cl | -7.93%
Nc1cc(Cl)nc(C(=O)O)c1Cl | -5.31%
CCCCCCCCCCCCCCC | -19.1%
CS(C)=O | -5.9%
CC1=CC(=O)NS(=O)(=O)O1 | -5.71%
Cc1ccc(N=Nc2c(O)ccc3ccccc23)c(C)c1 | -6.98%
CC/C(=C(\c1ccccc1)c1ccc(OCCN(C)C)cc1)c1ccc(O)cc1 | 29.8%
CCOC(=O)[C@H](C)Oc1ccc(Oc2nc3ccc(Cl)cc3o2)cc1 | 24.1%
CCCCCCCCOC(=O)c1cc(O)c(O)c(O)c1 | -14.5%
C=C(C)C(=O)OCCN(C)C | -17.1%

2 compounds drawn at random from those above:
SMILES | max response
CCCCCCCCCCCC[N+](C)(C)C | 52.2%
COC(=O)c1cccc(C)c1S(=O)(=O)NC(=O)Nc1nc(OCC(F)(F)F)nc(N(C)C)n1 | -13.4%

Further records follow:

SMILES | max response
CC(C)c1ccc2cc(C(C)C)ccc2c1 | -10.8%
Nc1nc2ccccc2[nH]1 | -37.7%
CCCCCCc1ccc(N)cc1 | -3.68%
Nc1ccc([N+](=O)[O-])cc1O | -12.6%
O=C(O)CCCc1c[nH]c2ccccc12 | 14.6%
CCCCCCCC[Si](OCC)(OCC)OCC | -16.7%
CCc1c(C(=O)O)c(=O)cnn1-c1ccc(Cl)cc1 | 4.97%
CCCCNS(=O)(=O)c1ccccc1 | -20.5%
COc1cc(/C=C/c2ccccc2)oc(=O)c1 | 41.9%
Brc1ccc(Oc2ccc(Br)cc2)cc1 | -5.86%
CC(C)(C)C1CCC(O)CC1 (stereo not given) | -13.8%
O=[N+]([O-])c1cc(Cl)c(Cl)c(Cl)c1Cl | 24.1%
C[Si]1(C)O[Si](C)(C)O[Si](C)(C)O[Si](C)(C)O1 | -6.19%
IC(I)I | -15.3%
O=C(O)C(c1ccc(Cl)cc1)c1ccc(Cl)cc1 | -6.13%
COc1c2ccoc2cc2oc(=O)ccc12 | 9.36%
CCCCC(CC)COC(=O)c1ccc(N(C)C)cc1 (stereo not given) | -9.82%
C=CC(=O)OCCOc1ccccc1 | -10.2%
CC(COCC(C)OC(=O)c1ccccc1)OC(=O)c1ccccc1 (stereo not given) | 13.5%
O=C(OCc1ccccc1)c1ccc(O)cc1 | 11.2%
